These results are taken from US4839465A (Sterling Drug Inc., priority 1987, dated 1989).

Data set [1] is described as follows: peptide synthesis.
A short description of data set [2]: Boc solid-phase peptide synthesis; chloromethylated styrene-divinylbenzene (1%) copolymer (Bio-Beads, 200-400 mesh, Bio-Rad); Boc-Phe-OBzl-resin, 0.68 mmol; dicyclohexylcarbodiimide with N-hydroxysuccinimide or 1-hydroxybenzotriazole; mi. Particulars: whole synthesis, free base, phosphate, acetate or hydrochloride salts.
[3] abbreviates: coupling step, free base, phosphate, acetate or hydrochloride salts.

For some assays here: HELM strings list residues between dots; [ac] is acetyl, [am] amide, other brackets name non-standard units.

As to Boc--trp--Phe--trp--Leu--Phe--NH2, the step yield in data set [1] (setting [3]) came out at 71% yield.

Turning to PEPTIDE1{[dW].F.[dW].L.M.[am]}$$$$V2.0, in data set [1] (late stage modification step, free base), the step yield was found to be 82% yield.

As for Z--Pro--trp--Phe--trp--Leu--NH2, the step yield in data set [1] (setting [3]) is on record as 71% yield.

With Boc--Phe--trp--Leu--Met--NH2, in data set [1] (setting [3]), the step yield is on record as 76% yield.

In the case of Boc--Pro--trp--Phe--trp--Leu--Phe--NH2, in data set [1] (whole synthesis, free base, phosphate, acetate or hydrochloride salts), the isolated yield was 13% yield.

As to “PEPTIDE1{[D-Tpi].F.[dW].L.F.[am]}$$$$V2.0”, in data set [1] (late stage modification step, phosphate salt (1:1) hemihydrate methanol solvate (2:1)), the step yield is listed as 39% yield.

On to Z--Pro--trp--Phe--trp--NHNH2, for which, in data set [1] (late stage modification step, free base, phosphate, acetate or hydrochloride salts), the step yield stood at 83% yield.

In the case of Boc--Pro--trp--Phe--tpi--Leu--Phe--NH2, the step yield in data set [1] (setting [3]) is on record as 23% yield.

As for PEPTIDE1{P.[dW].F.[dW].L.[am]}$$$$V2.0, the step yield in data set [1] (late stage modification step, triacetate hydrate salt-solvate) is recorded as 36% yield.

On to “Boc--Pro--trp--Phe--trp--Leu--Phe--OBzl-resin”, for which, in data set [2], the crude yield was determined as 96% yield.

Take Boc--trp--Phe--trp--Leu--Met--NH2: the step yield in data set [1] (setting [3]) was determined as 60% yield.

For PEPTIDE1{[dW].F.[dW].L.F.[am]}$$$$V2.0, the step yield in data set [1] (late stage modification step, phosphate salt) is listed as 38% yield.

As to Boc--Phe--tpi--Leu--Phe--NH2, in data set [1] (setting [3]), the step yield turned out to be 69.4% yield.

Take Z--Pro--trp--Phe--trp--OCH3: the step yield in data set [1] (setting [3]) turned out to be 42% yield.

Boc--tpi--Phe--trp--Leu--Met--NH2: the step yield was 57.5% yield in data set [1] (coupling step, free base, phosphate, acetate or hydrochloride salts, run 1) and 93.1% yield in data set [1] (coupling step, free base, phosphate, acetate or hydrochloride salts, run 2).

Take “PEPTIDE1{[D-Tpi].F.[dW].L.M.[am]}$$$$V2.0”: in data set [1] (late stage modification step, phosphate salt (1:1) hydrate (2:7)), the step yield was 29% yield.

On to PEPTIDE1{[Tpi].F.[dW].L.M.[am]}$$$$V2.0, for which, in data set [1] (late stage modification step, phosphate salt (1:1) acetic acid solvate (4:7)), the step yield is given as 37.4% yield.

With “PEPTIDE1{P.[dW].F.[D-Tpi].L.F.[am]}$$$$V2.0”, in data set [1] (late stage modification step, phosphate salt (1:1) acetic acid solvate (1:2)), the step yield amounted to 80% yield.

In the case of H--Phe--tpi--Leu--Phe--NH2, the step yield in data set [1] (late stage modification step, hydrochloride salt) was 95% yield.
